Results as given in paper doi:10.1101/2025.09.05.674500.
These are yes or no findings as the source states them, for the method shown. Binding seen in cells or lysates may run through a third protein.

The chains behind the UniProt entries cited, without tags or fusion partners.
UniProt Q13148: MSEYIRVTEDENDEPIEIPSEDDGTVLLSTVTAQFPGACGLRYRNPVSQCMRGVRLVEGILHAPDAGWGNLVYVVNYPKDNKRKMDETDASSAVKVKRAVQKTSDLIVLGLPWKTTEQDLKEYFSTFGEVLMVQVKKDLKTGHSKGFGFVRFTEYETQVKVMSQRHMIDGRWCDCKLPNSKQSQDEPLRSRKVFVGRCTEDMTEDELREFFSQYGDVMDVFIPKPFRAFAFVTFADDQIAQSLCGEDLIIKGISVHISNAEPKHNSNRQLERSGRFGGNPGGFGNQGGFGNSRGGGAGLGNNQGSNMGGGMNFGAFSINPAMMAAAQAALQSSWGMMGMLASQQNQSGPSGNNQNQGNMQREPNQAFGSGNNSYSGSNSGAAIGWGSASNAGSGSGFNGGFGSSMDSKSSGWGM

Molecular target: TDP-43 (TAR DNA-binding protein 43) (UniProt Q13148)
Test: co-IP

B1: ASC1 (S. cerevisiae ortholog of RACK1) (protein, UniProt P38011 1-319)
chain: MASNEVLVLRGTLEGHNGWVTSLATSAGQPNLLLSASRDKTLISWKLTGDDQKFGVPVRSFKGHSHIVQDCTLTADGAYALSASWDKTLRLWDVATGETYQRFVGHKSDVMSVDIDKKASMIISGSRDKTIKVWTIKGQCLATLLGHNDWVSQVRVVPNEKADDDSVTIISAGNDKMVKAWNLNQFQIEADFIGHNSNINTLTASPDGTLIASAGKDGEIMLWNLAAKKAMYTLSAQDEVFSLAFSPNRYWLAAATATGIKVFSLDPQYLVDDLRPEFAGYSKAAEPHAVSLAWSADGQTLFAGYTDNVIRVWQVMTAN
In the case of B1, the binding is reported as “no binding”.
